Measured values published in publication PMC5641085.
Results are given in words; binding and its absence hold for the method and conditions named.

The chains behind the UniProt entries cited, without tags or fusion partners. Where a name states a change or a piece, a line headed by the entry shows the natural chain unless it says otherwise.
UniProt P08253: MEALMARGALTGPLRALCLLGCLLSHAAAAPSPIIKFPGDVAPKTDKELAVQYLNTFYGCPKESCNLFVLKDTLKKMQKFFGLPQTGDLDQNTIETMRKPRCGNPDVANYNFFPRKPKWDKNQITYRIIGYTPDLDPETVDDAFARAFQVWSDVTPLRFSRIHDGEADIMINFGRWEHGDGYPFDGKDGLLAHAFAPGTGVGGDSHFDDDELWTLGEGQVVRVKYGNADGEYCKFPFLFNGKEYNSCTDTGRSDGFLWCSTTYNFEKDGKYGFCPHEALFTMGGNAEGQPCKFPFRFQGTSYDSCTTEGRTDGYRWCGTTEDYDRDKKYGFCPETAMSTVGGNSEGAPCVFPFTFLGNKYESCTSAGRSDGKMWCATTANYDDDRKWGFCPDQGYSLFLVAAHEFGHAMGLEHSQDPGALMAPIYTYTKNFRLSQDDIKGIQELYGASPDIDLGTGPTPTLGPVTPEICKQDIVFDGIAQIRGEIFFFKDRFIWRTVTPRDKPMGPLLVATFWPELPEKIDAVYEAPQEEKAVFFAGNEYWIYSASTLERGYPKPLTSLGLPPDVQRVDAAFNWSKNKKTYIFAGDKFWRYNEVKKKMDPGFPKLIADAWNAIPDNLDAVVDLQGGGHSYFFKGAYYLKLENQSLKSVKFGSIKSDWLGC
UniProt P14780: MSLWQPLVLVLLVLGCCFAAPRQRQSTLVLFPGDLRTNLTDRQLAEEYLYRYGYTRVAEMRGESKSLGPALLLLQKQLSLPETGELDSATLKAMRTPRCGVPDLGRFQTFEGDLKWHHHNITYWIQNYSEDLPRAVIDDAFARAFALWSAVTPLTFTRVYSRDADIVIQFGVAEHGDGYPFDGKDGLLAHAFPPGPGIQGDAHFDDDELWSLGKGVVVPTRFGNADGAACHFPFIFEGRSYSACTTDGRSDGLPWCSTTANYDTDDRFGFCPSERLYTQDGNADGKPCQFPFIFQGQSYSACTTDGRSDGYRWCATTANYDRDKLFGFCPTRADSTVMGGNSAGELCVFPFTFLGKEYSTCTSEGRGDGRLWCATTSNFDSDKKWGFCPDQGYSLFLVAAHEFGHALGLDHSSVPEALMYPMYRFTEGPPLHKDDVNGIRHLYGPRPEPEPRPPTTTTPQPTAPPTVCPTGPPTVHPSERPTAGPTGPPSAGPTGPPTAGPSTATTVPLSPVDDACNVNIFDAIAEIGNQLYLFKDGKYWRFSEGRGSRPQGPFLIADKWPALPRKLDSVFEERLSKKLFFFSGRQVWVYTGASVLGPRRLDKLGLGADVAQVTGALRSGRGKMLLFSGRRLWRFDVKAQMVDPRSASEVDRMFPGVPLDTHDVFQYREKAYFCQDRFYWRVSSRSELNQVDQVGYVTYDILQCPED

Target: T1, Ubiquitin-conjugating enzyme E2 J2 (UBE2J2) (human (endogenous in human liver cancer cell lines HCCLM3 or SMMC7721)) (UniProt Q8N2K1)
T1 sequence: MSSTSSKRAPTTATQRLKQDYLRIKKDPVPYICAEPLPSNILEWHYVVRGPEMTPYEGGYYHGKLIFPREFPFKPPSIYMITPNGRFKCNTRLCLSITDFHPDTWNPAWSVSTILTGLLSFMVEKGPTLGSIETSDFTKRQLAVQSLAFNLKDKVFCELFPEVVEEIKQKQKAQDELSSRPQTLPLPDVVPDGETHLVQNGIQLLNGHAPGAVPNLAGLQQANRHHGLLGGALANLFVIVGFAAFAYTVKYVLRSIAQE
Assay: SPR; Biacore X100; anti-UBE2J2 antibody (and normal IgG) immobilised on a CM5 chip by EDC/NHS, blocked with 3% BSA; concentrated RIPA cell lysate injected, washed with HEPES buffer (50 mM HEPES, pH 7.4, 150 mM NaCl); proteins held with UBE2J2 detected by injecting antibodies against them

For E-Cadherin, the binding was “no binding”.
For MMP-2 (from UniProt P08253) (enzyme), the binding was “no binding”.
For MMP-9 (from UniProt P14780) (enzyme), the binding was “no binding”.
